Assay results: the supplement of paper PMC12872613
Structures can show the parent of a compound that is named as a salt. This is one part of the list. No stated cut-off is given here; in the data, active = 0.7 or more and inactive = the rest. Single values are uncertain, as repeats are few or missing.

Test system: MiaPaCa-2 CLSA-25
Assay: cell death relative to DMSO vehicle (fraction); higher = more cytotoxic
Conditions: 5 µM; treatment time 48 h; medium cystine 25 µM

Row | SMILES | cell death
1 | C[C@H]1C[C@H]2[C@@H]3CCC4=CC(=O)C=C[C@]4(C)[C@@]3(F)[C@@H](O)C[C@]2(C)[C@@]1(O)C(=O)CO [Betamethasone] | inactive: 0.102
2 | O=C1O[C@H]([C@@H](O)CO)C(O)=C1OP(=O)(O)O [Sodium L-ascorbyl-2-phosphate] | inactive: 0.0952
3 | NC(=O)c1ccc[n+]([C@@H]2O[C@H](COP(=O)([O-])OP(=O)(O)OC[C@H]3O[C@@H](n4cnc5c(N)ncnc54)[C@H](O)[C@@H]3O)[C@@H](O)[C@H]2O)c1 | inactive: 0.17
4 | COc1cccc(CNc2ccc(S(=O)(=O)Nc3nc4ccccc4s3)cc2)c1O | inactive: 0.492
5 | NC(=O)c1ncn([C@@H]2O[C@H](CO)[C@@H](O)[C@H]2O)c1N [AICAR (Acadesine)] | inactive: 0.231
6 | Cc1cc([N+](=O)[O-])ccc1NS(=O)(=O)c1cc(Cl)ccc1Cl | active: 0.733
7 | CCc1oc2ccccc2c1C(=O)c1cc(Br)c(O)c(Br)c1 [Benzbromarone] | inactive: -0.0283
8 | CCC(=O)O[C@]1(C(=O)CCl)[C@@H](C)C[C@H]2[C@@H]3C[C@H](F)C4=CC(=O)C=C[C@]4(C)[C@@]3(F)[C@@H](O)C[C@@]21C [Halobetasol Propionate] | inactive: 0.444
9 | CCN(CC)C(=O)Cc1csc(NS(=O)(=O)c2cccc(Cl)c2C)n1 | inactive: 0.165
10 | COC(=O)C1=CO[C@@H](O)[C@@H]2C(CO)=CC[C@H]12 [Genipin] | inactive: 0.123
11 | CCOC(=O)c1ccc(C#Cc2ccc3c(c2)C(C)(C)CCS3)nc1 [Tazarotene] | inactive: 0.0963
12 | O=C(Cc1ccccc1)Nc1nnc(CCSCCc2nnc(NC(=O)Cc3ccccc3)s2)s1 | inactive: 0.111
13 | Cc1cc(-c2nc(-c3ccc(OC(F)(F)F)cc3)no2)nn1Cc1ccnc(N2CCN(C3CC3)CC2)c1 | inactive: -0.00321
14 | C[C@H]1c2cccc(O)c2C(=O)C2=C(O)[C@]3(O)C(=O)C(C(N)=O)=C(O)[C@@H](N(C)C)[C@@H]3[C@@H](O)[C@@H]21 [Doxycycline hyclate] | inactive: 0.0976
15 | CC[C@H]1[C@@H](O)[C@@H]2[C@H](CC[C@]3(C)[C@@H]([C@H](C)CCC(=O)O)CC[C@@H]23)[C@@]2(C)CC[C@@H](O)C[C@@H]12 [Obeticholic Acid] | inactive: 0.157
16 | CC(=O)OC/C=C(C)/C=C/C=C(C)/C=C/C1=C(C)CCCC1(C)C [Retinyl acetate] | inactive: 0.0773
17 | CCCc1ncc(C[n+]2ccccc2C)c(N)n1 [Amprolium Hydrochloride] | inactive: 0.622
18 | N=C(NOCC(O)CN1CCCCC1)c1cccnc1 (centres undefined) | inactive: 0.0869
19 | NCCCC(N)(C(=O)O)C(F)F (centres undefined) [Eflornithine hydrochloride Monohydrate] | inactive: 0.486
20 | CN(C)CC(=O)O [N,N-Dimethylglycine] | inactive: -0.00321

Row | SMILES | cell death
21 | CCc1cccc2c3c([nH]c12)C(CC)(CC(=O)O)OCC3 (centres undefined) [Etodolac] | inactive: 0.621
22 | NS(=O)(=O)c1cc2c(cc1Cl)NC(C(Cl)Cl)NS2(=O)=O (centres undefined) [Trichlormethiazide] | inactive: -0.00986
23 | O=c1cc(-c2ccc(O)c(O)c2)oc2cc(O)cc(O)c12 [Luteolin] | inactive: 0.208
24 | O=C(c1cc(S(=O)(=O)Nc2ccccc2F)c(F)cc1Cl)N1CCN2CCC[C@@H]2C1 | inactive: 0.128
25 | O=C(Nc1c(Cl)cncc1Cl)c1ccc(OC(F)F)c(OCC2CC2)c1 [Roflumilast] | active: 0.844
26 | CCCC(C(=O)OCCN(CC)CC)(c1ccccc1)c1ccccc1 [Proadifen hydrochloride] | inactive: 0.537
27 | CN(CCOc1ccc(CC2SC(=O)NC2=O)cc1)c1ccccn1 (centres undefined) [Rosiglitazone] | inactive: -0.0302
28 | OCc1ccccn1 [2-(Hydroxymethyl)pyridine] | inactive: 0.0995
29 | O=C(O)CC1CC(c2ccccc2)=NO1 (centres undefined) | inactive: 0.209
30 | O=C(O)c1ccc(-c2c[nH]c3ncc(-c4ccccc4)cc23)cc1C1CCCC1 | inactive: 0.166
31 | CCC(C)SSc1ncc[nH]1 (centres undefined) | inactive: 0.634
32 | C=C(C)[C@@H]1CC[C@]2(CO)CC[C@]3(C)[C@H](CC[C@@H]4[C@@]5(C)CC[C@H](O)C(C)(C)[C@@H]5CC[C@]43C)[C@@H]12 [Betulin] | inactive: 0.134
33 | CCOc1ccc(Cc2nccc3cc(OCC)c(OCC)cc23)cc1OCC [Ethaverine hydrochloride] | inactive: 0.644
34 | O=C1CN2Cc3c(ccc(Cl)c3Cl)N=C2N1 [Anagrelide] | inactive: 0.453
35 | Nc1ncccc1-c1nc2ccc(-c3ccccc3)nc2n1-c1ccc(C2(N)CCC2)cc1 [Miransertib] | active: 0.812
36 | Cc1cccc(Nc2cc(Cl)nc(SCC(=O)O)n2)c1C [Pirinixic Acid] | inactive: 0.396
37 | CC1=C(/C=C/C(C)=C/C=C/C(C)=C\C(=O)O)C(C)(C)CCC1 [Isotretinoin] | inactive: 0.147
38 | CC(=O)Oc1c(C)c(C)c2c(c1C)CCC(C)(CCC[C@H](C)CCC[C@H](C)CCCC(C)C)O2 (some centres undefined) [Vitamin E Acetate] | inactive: 0.353
39 | CCCCC(CC)COC(=O)CC(C(=O)OCC(CC)CCCC)S(=O)(=O)O (centres undefined) [Docusate sodium] | inactive: 0.0706
